Values from PubChem BioAssay AID1259405 (NCATS, 2018).

Assay: 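Mouse-designed siRNAs used to find CHO productivity engineering targets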 (primary screen)
System: Chinese hamster CHO-K1 ovary cells with stable secreted eGFP expression
Reagent: single siRNA against mouse genes, 0.8 pmol siRNA per well (2 µl of 400 nM stock)
Time to read-out: 3 days
Detection: 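Percent of the per-plate non-targeting control median for intracellular GFP per well by laser scanning cytometry and for cell viability by ATP luminescence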
Direction: GFP, % of control: higher = more GFP per well, higher productivity; viability (ATP), % of control: higher = more viable cells (more ATP)
Active means: 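Called active when intracellular GFP, relative to negative control, is at or above 120%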
The whole screen tested about 50,000 reagents; this is a random part of them. About 4,000 of them (8%) were called active. 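Mouse siRNA library applied to hamster cells; one well for each siRNA.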 Reagent sequences are not shown.

gene,PubChem SID,"GFP, % of control","viability (ATP), % of control",call
Or8b38,SID363554625,74.5,89.1,inactive
Or8b38,SID363568072,72.4,61.5,inactive
Or8b38,SID363586131,65.5,95,inactive
Gab3,SID363544064,72,77.9,inactive
Gab3,SID363550392,68,75.7,inactive
Gab3,SID363556941,189,132,active
Zmat4,SID363545666,63.8,82.3,inactive
Zmat4,SID363549179,68.4,92.9,inactive
Zmat4,SID363562985,53.3,58.4,inactive
Zfp799,SID363573379,51.4,61.4,inactive
Zfp799,SID363588618,87.2,96.5,inactive
Klhl38,SID363552375,60.4,47.6,inactive
Klhl38,SID363585511,80.8,87.3,inactive
Klhl38,SID363585862,121,116,active
Gpi1,SID363568922,156,96.7,active
Gpi1,SID363576314,113,114,inactive
Gpi1,SID363579130,66.5,44.5,inactive
H2-T24,SID363553794,34.6,45.1,inactive
H2-T24,SID363561751,86.9,79.2,inactive
H2-T24,SID363565489,62.4,66.1,inactive
Mcm10,SID363562133,84.2,78,inactive
Mcm10,SID363567271,54.3,53.6,inactive
Mcm10,SID363584628,51.3,62.9,inactive
Gpr158,SID363569219,102,106,inactive
Gpr158,SID363583651,106,86.6,inactive
Sync,SID363541549,84.1,56.3,inactive
Sync,SID363556176,29.7,43.9,inactive
Sync,SID363566465,59.3,67.7,inactive
Or52j3,SID363554385,98.8,84.5,inactive
Or52j3,SID363567832,131,69.8,active
Or52j3,SID363585189,43.1,75.9,inactive
Vpreb1a,SID363553548,37.3,44.5,inactive
Vpreb1a,SID363561505,80.1,50.3,inactive
Vpreb1a,SID363565243,82.2,70.2,inactive

Called active (from the list above):
gene,PubChem SID,"GFP, % of control","viability (ATP), % of control",call
Gab3,SID363556941,189,132,active
Klhl38,SID363585862,121,116,active
Gpi1,SID363568922,156,96.7,active
Or52j3,SID363567832,131,69.8,active
